# Library screen at single concentrations

Sequences of proteins named here, by UniProt entry; tags and fusion partners are left off. Residues count along the entry.
UniProt A4I591, 1-473: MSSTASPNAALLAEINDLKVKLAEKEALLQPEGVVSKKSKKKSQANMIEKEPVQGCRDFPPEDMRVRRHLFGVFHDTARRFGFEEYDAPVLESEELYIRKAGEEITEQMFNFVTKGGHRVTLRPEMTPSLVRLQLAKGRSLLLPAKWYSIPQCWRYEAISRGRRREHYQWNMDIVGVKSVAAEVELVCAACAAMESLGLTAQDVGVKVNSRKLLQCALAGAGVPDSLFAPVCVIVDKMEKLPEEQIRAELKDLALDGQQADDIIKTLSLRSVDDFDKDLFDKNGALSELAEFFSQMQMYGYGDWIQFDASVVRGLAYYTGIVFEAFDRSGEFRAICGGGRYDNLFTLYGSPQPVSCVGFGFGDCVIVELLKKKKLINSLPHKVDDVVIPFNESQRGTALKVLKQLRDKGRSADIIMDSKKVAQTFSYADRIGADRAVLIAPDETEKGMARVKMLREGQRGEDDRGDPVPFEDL
UniProt P9WNZ1, whole entry: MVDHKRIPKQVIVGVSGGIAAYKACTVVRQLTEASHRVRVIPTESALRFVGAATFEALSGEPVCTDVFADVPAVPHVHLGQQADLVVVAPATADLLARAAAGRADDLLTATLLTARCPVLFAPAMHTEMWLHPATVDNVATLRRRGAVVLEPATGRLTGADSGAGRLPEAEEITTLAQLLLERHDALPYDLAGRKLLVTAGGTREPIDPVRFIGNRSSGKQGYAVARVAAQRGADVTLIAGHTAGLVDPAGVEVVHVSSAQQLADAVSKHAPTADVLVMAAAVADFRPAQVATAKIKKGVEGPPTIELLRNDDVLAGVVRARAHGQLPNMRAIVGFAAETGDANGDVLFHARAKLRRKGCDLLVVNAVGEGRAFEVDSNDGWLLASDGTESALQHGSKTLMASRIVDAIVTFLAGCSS
UniProt Q8IDJ8, 1-583: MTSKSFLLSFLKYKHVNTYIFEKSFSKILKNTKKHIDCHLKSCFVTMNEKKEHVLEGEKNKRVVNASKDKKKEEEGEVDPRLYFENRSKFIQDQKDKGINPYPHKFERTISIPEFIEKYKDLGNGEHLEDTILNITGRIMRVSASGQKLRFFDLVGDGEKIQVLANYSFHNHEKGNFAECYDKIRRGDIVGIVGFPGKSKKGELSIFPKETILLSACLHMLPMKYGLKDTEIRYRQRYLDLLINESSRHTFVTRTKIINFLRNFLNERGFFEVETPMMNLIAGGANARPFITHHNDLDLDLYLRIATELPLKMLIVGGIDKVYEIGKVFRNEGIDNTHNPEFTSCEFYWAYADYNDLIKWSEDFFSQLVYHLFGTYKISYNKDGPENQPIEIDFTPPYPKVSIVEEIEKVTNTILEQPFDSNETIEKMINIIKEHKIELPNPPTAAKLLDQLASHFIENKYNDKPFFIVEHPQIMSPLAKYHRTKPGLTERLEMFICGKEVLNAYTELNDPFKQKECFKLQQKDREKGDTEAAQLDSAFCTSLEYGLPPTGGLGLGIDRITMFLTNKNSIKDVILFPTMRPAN
UniProt P9WFT3, whole entry: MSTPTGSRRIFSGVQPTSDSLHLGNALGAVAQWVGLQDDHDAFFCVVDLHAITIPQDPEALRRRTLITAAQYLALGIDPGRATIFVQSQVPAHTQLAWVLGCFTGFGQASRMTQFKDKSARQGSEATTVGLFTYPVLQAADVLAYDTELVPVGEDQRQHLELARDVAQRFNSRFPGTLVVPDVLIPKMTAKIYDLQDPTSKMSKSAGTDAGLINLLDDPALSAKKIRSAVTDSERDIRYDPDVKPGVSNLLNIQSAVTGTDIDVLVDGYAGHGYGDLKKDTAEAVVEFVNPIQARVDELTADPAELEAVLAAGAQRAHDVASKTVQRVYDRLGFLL

Measurements from “University of Dundee, Small-Polar-MMV Screening Library” (2021), ChEMBL document CHEMBL3988442.

Results are given as percent effect. The record does not define 0% and 100%; most values in the screen are far below 50% and negative numbers occur (in some assays of this library far below -100). This is an unselected part of the compounds tested. Two or more numbers in one place are separate tests of the same structure; such repeats can differ widely. A dash means the value is not listed here; it may have been measured.

A: 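Enzyme assay of histidyl-tRNA synthetase; the read-out is not stated. Target: Histidine-tRNA ligase, Leishmania infantum (UniProt A4I591). Concentration: 30 µM. Higher reads as stronger inhibition (inferred: compounds with an IC50 in retests scored well above the rest). The assay is labelled LdHisRS but filed under L. infantum. About 69,000 compounds were tested under these conditions; 0.6% (about 410) showed 50% or more at least once.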
B: 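Coenzyme A biosynthesis protein CoaBC, Mycobacterium tuberculosis (UniProt P9WNZ1). Enzyme assay of CoaBC with a phosphate dye (Biomol Green) read at 650 nm. Concentration: 30 µM. Direction is inferred from only a few compounds that gave an IC50; most scored high, so higher reads as stronger inhibition. Most strong results did not repeat in a second test. Size under these conditions: about 67,000 compounds, about 40 of them at 50% or above in at least one test.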
C: 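Enzyme assay of the cytosolic lysyl-tRNA synthetase in 384-well plates, read by luminescence. Target: Lysine-tRNA ligase, Plasmodium falciparum 3D7 (UniProt Q8IDJ8). Compounds at 30 µM. Higher reads as stronger inhibition, judged from the few compounds that gave an IC50. Of about 69,000 compounds tested this way, about 49 (0.071%) reached 50% or more in at least one test.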
D: 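Tryptophan-tRNA ligase, Mycobacterium tuberculosis (UniProt P9WFT3). Enzyme assay of tryptophanyl-tRNA synthetase; the read-out is not stated. Compounds at 10 µM. Direction is not recorded; retested compounds ran higher, which suggests that high means inhibition. About 65,000 compounds were tested under these conditions; 0.098% (about 64) showed 50% or more at least once.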

Compound	A	B	C	D
Cc1cc(CNC2CCCN(Cc3noc(C4CC4)n3)C2)on1 (stereo not shown)	14.55	2.041	-2.267	14.94
COc1cccn(CC(=O)N2CCCC3(CCOCC3)C2)c1=O	98.91	-0.1211	5.286	2.799
O=C(O)c1ccc2ccc(N3CCN(CC4CC4)CC3)n2c1	17.07	7.255	-7.662	6.183
O=C(Cc1cccc(F)c1F)NC1COc2ccccc2C1=O (stereo not shown)	13.7	12.19	3.13	0.7802
CN(C)CCN1CCOCC2(CCCN(C(=O)c3ccccc3)C2)C1 (stereo not shown)	8.571	-21.5	0.2597	0.9764
Cc1nc(C)n(CC2CN(CCc3ccncc3)CCO2)n1 (stereo not shown)	15.38	7.463	1.426	-2.067
C[C@H](NS(C)(=O)=O)C(=O)NCc1cc(-c2ccco2)n(CC(F)(F)F)n1	-80	-1.807	3.538	-
Cc1ccn2ncc(C(=O)N3CCCC(n4cccn4)C3)c2n1 (stereo not shown)	13.16	1.281	0.854	-0.8475
CNC(=O)c1ccc(CN(C)C(=O)Nc2nnc(C(C)C)s2)cc1	-13.83	0.6734	1.572	3.097
Cc1ccc(C(=O)N2C[C@@H](C(=O)O)[C@H](c3ccncc3)C2)cc1F	19.66	0.4202	2.978	1.201
Cc1ccc2oc(=O)n(CCC(=O)N3CCCC4(CNC(=O)O4)C3)c2c1 (stereo not shown)	15.05	-6.88	4.639	-0.1282
Cc1c(Br)cccc1C(=O)NCC1CCNCC1	-1.299	-20.25	7.075	13.79
Cn1nc(C2CC2)c2c1NC(=O)CC2c1cc(CN2CCCC2)cs1 (stereo not shown)	27.96	19.96	6.421	1.509
Cc1ccc(Oc2ccc(NC(=O)NCC3CCOC3)cn2)cc1C (stereo not shown)	-10.64	6.995	1.36	2.153
Cc1ccc(C)c(S(=O)(=O)NCCC(=O)NCc2ccoc2)c1	13.39	-2.066	13.4	-3.838
CC1(C)COCCN1C(=O)CCc1nc(-c2ccccn2)no1	9.821	3.968	5.571	0.8894
CCc1nnc(CNC(=O)CCC2CCCCN2C)s1 (stereo not shown)	14.67	5.765	0.9753	8.668
CCCOc1cccc(-c2nc3c([nH]2)CCNC3)c1	16.81	-36.73	4.51	2.596
COC(=O)CCCn1ccnc1C(C)c1ccccc1 (stereo not shown)	24.66	-1.222	-2.643	-0.149
Cc1nc2n(n1)CCN(S(=O)(=O)c1ccc(Cl)cc1)C2	15.97	1.138	7.046	4.95
CC(C)Cc1cc(-c2cc(-c3ccc[nH]3)nc(N)c2C#N)n[nH]1	31.87	0	-0.2288	5.631
CC(C)CC(NC(=O)CSc1ccc(F)c(Cl)c1)C(=O)O (stereo not shown)	7.895	-0.7576	3.152	0.3501
Cc1nc(NS(=O)(=O)c2cc(C)c(Br)cc2C)no1	13.98	2.314	2.501	0.1432
Cc1cc(N2CCN(Cc3ccccc3)CC(O)C2)cc(C)n1 (stereo not shown)	3.846	-22.81	-3.469	-3.483
O=C(c1ccc(F)cc1)N1CCC2(CC1)CC(N1CCOCC1)C2	17.43	10.82	4.972	1.327
CN1[C@H]2CC[C@@H]1CN(C(=O)c1nnc3n1CCCCC3)CC2	20	2.451	3.852	2.099
COc1ccc(C)cc1CNCc1ccc(-n2nc(C)cc2C)nc1	20	4.521	1.71	-1.258
CN(C)C(=O)N1CCC(C(=O)NCCNc2ncccc2C#N)CC1	19.48	8.544	1.796	-0.5452
COc1ncc(-c2nccn2C(C)CCn2cccn2)cn1 (stereo not shown)	15.05	9.671	-0.179	-5.131
O=C(C1CCCC1)N1CCCC([C@@H]2C[C@H](C(F)F)n3ncnc3N2)C1 (stereo partly shown)	11.51	4.067	-0.9396	-0.2604
Cc1cc(C[S+]([O-])CC(=O)Nc2c(C)cccc2C)no1 (stereo not shown)	16.44	0.7229	2.794	1.199
CCOc1ccc(C(=O)N2CCCC(n3nc(C)nc3C)C2)cc1 (stereo not shown)	-1.835	3.611	-1.628	-0.6773
Cn1c(CO[C@H]2CN(S(C)(=O)=O)C[C@H]2F)nc2ccccc21	13.89	1.58	3.902	1.732
Cc1nccn1CCN(C)C(=O)C1CCN(C(=O)C2CCCC2)CC1	-6.557	-4.545	-0.3596	0.4831
CCn1nc2c(cc1=O)CN(Cc1nc(-c3ccoc3)no1)CC2	18.67	-4.545	-2.477	5.706
CCN1CCC[C@@H]1CNC(=O)c1cc(COc2ccccc2)[nH]n1	18.03	-4.904	4.663	-1.22
Cc1c[nH]c(CN(C)C(C(=O)O)c2c(F)cccc2OC(C)C)n1 (stereo not shown)	17.58	0.6098	3.624	4.238
COc1ccc(CC2(CO)CCN(c3cc(C(N)=O)ccn3)CC2)cc1	1.667	13.65	-8.421	3.778
CCOC(=O)CNC(=O)c1cc2n(n1)CCCO2	20.78	3.321	3.243	-0.1236
CCN(Cc1cnn(CC)c1)C(=O)CN1C(=O)CCc2ccccc21	6.806	5.652	1.888	-4.335
NC1(C(=O)NCC2CCCN(Cc3cccc4nonc34)C2)CCC1 (stereo not shown)	17.58	0.6098	-1.301	0.3974
CC(C)CN1CCCC2(CCN(c3ccc(C#N)cn3)C2)C1 (stereo not shown)	13.16	-11.2	0.2053	-1.443
CCc1nc(C)sc1CN1CC[C@@](O)(C2CC2)[C@H](C)C1	9.524	3.641	0.2241	-1.728
CCOCCCC(=O)Nc1cccnc1-n1ccnc1C	8.602	1.908	9.852	-0.4167
Cc1ccc2c(c1)OC(C)CN2C(=O)CCc1cccnc1 (stereo not shown)	15.38	-3.018	7.103	1.21
Cc1cc(C)nc(CCNC(=O)[C@H]2CNC[C@@H](C(=O)N3CCCC3)C2)n1	3.81	-1.075	-4.128	0.9046
CCC(O)CN1CCN(C(=O)c2ccn(-c3ccccc3)n2)CC1 (stereo not shown)	14.29	4.773	0.1406	-4.413
Cc1ccc2c(c1)CN(C(=O)c1cccnc1)C(CN(C)C)CO2 (stereo not shown)	9.375	-0.7353	3.335	-
Cc1ccnn1CCC(=O)N(Cc1ccsc1)CC(C)C	12.82	10.66	1.841	-4.562
Cc1ccc(=O)n(CC(=O)N2CCCC(c3nc(C)c(C)s3)C2)n1 (stereo not shown)	12	-2.893	2.819	-10.52
O=C(NCC(Cc1cccc(F)c1)n1cccc1)C1CC1 (stereo not shown)	13.91	5.708	0.215	-4.787
COc1cc(N2CC[C@@H](O)[C@@H]2Cc2cccnc2)ncn1	6.422	1.826	2.592	4.202
CCn1nc(C)c2nc(C(C)C)nc(N3CCCC3)c21	7.08	1.493	-7.937	-1.72
Cc1cc(CNC(=O)CN2CCCC(Cn3cncn3)C2)ccc1F (stereo not shown)	10.34	-0.7833	2.435	3.754
Fc1cc(CCNc2ccc3nccn3n2)c2c(c1)COCO2	19.47	4.906	5.365	2.041
O=C(NC1CC2(CCN(CCO)CC2)c2ccccc21)c1ccncc1 (stereo not shown)	20.69	-	13.62	1.618
C[C@]1(O)CN(CCC(N)=O)CC[C@@H]1Oc1cccc(F)c1	15.94	-0.2427	4.207	-
NC(=O)c1nc(-c2cccc(Cl)c2)oc1N	9.89	-1.687	-1.556	1.618
O=C(NCC1COCc2c(-c3cccnc3)nnn2C1)c1cccs1 (stereo not shown)	11.76	1.158	6.174	-1.438
COc1ncccc1CNC(=O)c1cnc(C)cn1	12.04	2.105	0.7162	6.016
Cc1cccc(N2CCN(C(=O)Cc3ccccc3O)C(C)C2)n1 (stereo not shown)	21.05	3.797	7.19	6.612
O=C(CCCc1cccs1)N1CCC(N2CCNC2=O)CC1	2.655	-1.567	0.5283	5.643
Cc1cccc(OC2CCN(c3nc(N)nc4[nH]cnc34)CC2)c1	15.15	-9.879	5.5	0
COc1cccc(C(=O)N2CCN(Cc3nc(C(C)C)no3)CC2)c1	10.71	-0.6579	1.096	-3.352
CC(C)CC(NC(=O)c1cccs1)c1nc2cccnc2n1C (stereo not shown)	7.092	53.62 & 5.67	1.531	-1.592
Fc1ccc(C2(CNC3=NCCN3)CCCC2)cc1	21.43	-34.63	23.35	-0.1805

Repeated from the top, 5 entries:

With Cc1cc(CNC2CCCN(Cc3noc(C4CC4)n3)C2)on1 (stereo not shown) the screen gave A: 14.55%; B: 2.041%; C: -2.267%; D: 14.94%.
With COc1cccn(CC(=O)N2CCCC3(CCOCC3)C2)c1=O the screen gave A: 98.91%; B: -0.1211%; C: 5.286%; D: 2.799%.
With O=C(O)c1ccc2ccc(N3CCN(CC4CC4)CC3)n2c1 the screen gave A: 17.07%; B: 7.255%; C: -7.662%; D: 6.183%.
With O=C(Cc1cccc(F)c1F)NC1COc2ccccc2C1=O (stereo not shown) the screen gave A: 13.7%; B: 12.19%; C: 3.13%; D: 0.7802%.
With CN(C)CCN1CCOCC2(CCCN(C(=O)c3ccccc3)C2)C1 (stereo not shown) the screen gave A: 8.571%; B: -21.5%; C: 0.2597%; D: 0.9764%.